# From patent US8519007B2, “Use certain diterpene compounds in the treatment of androgen receptor-associated diseases” (Academia Sinica, priority 2008, dated 2013)
# Some entries share one result that the patent states for a list of compounds.
# Molecular target: T1, androgen receptor (Homo sapiens, UniProt P10275)
# T1 sequence (P10275 with tags, fused parts or gaps DUP590-628/H875Y): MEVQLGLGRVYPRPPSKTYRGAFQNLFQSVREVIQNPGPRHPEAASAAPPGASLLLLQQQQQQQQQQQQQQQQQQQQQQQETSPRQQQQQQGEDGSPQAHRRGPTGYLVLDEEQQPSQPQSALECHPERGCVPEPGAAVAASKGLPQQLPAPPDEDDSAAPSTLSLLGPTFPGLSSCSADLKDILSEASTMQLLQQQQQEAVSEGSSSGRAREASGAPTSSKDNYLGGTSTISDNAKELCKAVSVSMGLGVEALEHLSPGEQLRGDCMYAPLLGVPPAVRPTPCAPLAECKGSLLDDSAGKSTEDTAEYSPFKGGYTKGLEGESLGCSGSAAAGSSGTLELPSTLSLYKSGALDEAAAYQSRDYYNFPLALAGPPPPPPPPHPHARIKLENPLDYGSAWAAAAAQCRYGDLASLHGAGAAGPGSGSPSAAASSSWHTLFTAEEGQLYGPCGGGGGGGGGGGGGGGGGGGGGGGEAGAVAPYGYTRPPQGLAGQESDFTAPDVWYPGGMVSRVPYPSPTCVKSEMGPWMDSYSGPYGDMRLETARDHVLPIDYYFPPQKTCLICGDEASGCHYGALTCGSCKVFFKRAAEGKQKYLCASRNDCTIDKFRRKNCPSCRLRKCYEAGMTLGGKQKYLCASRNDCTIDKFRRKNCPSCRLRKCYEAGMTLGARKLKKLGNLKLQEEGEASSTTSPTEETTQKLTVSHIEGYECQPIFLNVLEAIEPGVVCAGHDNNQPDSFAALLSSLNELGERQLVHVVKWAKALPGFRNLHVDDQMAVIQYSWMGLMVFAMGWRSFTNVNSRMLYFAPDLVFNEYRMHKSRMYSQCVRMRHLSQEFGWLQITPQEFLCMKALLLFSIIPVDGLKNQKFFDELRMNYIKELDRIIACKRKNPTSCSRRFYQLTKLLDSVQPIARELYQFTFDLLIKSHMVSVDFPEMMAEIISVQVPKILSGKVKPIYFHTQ
# Experiment: PSA promoter luciferase reporter assay in 103E cells (AR transcriptional activity)
# Conditions: 20 h
row,Compound,concentration at which AR activity was completely inhibited
1,"CC(C)c1cc2c(cc1O)[C@@]1(C)CCCC(C)(C)C1=C(O)C2=O [Compound 2, 6,12-dihydroxyabieta-5,8,11,13-tetraen-7-one]",below 25 μM
2,CC(C)c1cc2c(cc1O)[C@@]1(C)CCCC(C)(C)[C@@H]1CC2=O [Compound 3],below 25 μM
3,CC(C)c1cc2c(cc1O)[C@@]1(C)CCCC(C)(C)[C@@H]1C(=O)C2=O [Compound 7],below 25 μM
